{"sequences": {"note": "By UniProt entry, the sequences of proteins in these tests, tags left out.", "UniProt P49321": "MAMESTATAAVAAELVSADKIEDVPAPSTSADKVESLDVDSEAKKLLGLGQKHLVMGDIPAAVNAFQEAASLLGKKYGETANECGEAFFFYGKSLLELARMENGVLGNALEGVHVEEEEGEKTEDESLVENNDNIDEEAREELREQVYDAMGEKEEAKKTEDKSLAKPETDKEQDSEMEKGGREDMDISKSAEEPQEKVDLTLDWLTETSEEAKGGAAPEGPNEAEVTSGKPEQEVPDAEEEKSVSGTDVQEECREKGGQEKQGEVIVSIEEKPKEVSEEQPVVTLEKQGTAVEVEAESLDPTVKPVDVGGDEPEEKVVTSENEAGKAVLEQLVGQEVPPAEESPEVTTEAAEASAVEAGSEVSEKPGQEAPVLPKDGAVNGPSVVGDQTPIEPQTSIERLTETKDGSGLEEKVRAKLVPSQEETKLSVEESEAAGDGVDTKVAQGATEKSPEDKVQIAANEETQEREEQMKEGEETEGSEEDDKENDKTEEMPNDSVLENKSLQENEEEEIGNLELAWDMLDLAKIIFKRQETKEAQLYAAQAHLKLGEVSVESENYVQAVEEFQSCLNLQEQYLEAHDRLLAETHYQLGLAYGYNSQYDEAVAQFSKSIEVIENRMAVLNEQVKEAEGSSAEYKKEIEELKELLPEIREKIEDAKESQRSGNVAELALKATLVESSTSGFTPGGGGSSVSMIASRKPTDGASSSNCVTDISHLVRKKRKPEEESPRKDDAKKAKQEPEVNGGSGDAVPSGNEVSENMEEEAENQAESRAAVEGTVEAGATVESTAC"}, "source": "paper doi:10.1101/2025.11.10.687652", "target": "T1, human FLAG-DONSON (wild type) (human) (UniProt Q9NYP3)", "T1 sequence": "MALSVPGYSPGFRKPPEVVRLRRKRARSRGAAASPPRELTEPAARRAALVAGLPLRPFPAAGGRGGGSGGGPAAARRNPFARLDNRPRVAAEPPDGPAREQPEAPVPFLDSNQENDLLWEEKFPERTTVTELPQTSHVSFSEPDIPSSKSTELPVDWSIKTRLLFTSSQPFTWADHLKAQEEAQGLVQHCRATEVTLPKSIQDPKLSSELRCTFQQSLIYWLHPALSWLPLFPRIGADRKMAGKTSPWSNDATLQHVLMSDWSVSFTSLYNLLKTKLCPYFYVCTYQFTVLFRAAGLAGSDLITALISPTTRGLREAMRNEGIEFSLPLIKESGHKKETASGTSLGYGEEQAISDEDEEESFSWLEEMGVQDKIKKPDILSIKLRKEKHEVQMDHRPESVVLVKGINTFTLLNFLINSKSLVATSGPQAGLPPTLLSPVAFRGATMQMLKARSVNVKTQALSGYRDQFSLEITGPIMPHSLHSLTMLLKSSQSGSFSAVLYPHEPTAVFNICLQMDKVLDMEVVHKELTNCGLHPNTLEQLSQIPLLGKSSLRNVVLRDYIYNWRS", "experiment": "co-IP; FLAG-DONSON from wheat germ extract bound to anti-DYKDDDDK magnetic agarose and washed, then wheat germ extract expressing HA-NASP added in 2xELB-sucrose, 1 hour at 4 °C; eluted with FLAG peptide; immunoblot", "note": "No constants are given. Whether binding was seen depends on the method and setting. Binding seen in cells or lysates may run through a third protein. Some binding calls cover weakened binding; strength is not graded here. Tags and fused reporters may be left off the sequences shown."}
{"substance": "human HA-NASP (from UniProt P49321 1-788)", "values": [{"measurement": "binding", "value": "binds"}]}
